The test concerns the target T1, His-PPP1R2P3 (human) (UniProt Q6NXS1).
T1 sequence: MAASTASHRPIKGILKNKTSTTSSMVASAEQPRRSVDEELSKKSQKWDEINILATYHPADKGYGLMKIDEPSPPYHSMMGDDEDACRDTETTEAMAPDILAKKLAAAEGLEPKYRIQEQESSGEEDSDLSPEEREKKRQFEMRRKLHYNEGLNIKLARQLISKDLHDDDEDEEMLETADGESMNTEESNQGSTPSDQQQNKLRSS
Put plainly: far-Western, overlay or dot blot; 0.3 ug commercial PPP1R2 or His-PPP1R2P3 resolved by SDS-PAGE, transferred to nitrocellulose, overlaid with purified PPP1CC1 or PPP1CC2 (25 pmol/mL) in Tris buffered saline with Tween-20/BSA; detected with CBC3C or CBC502 antibodies; both purified.

Amino acid sequences for entries named in this document (tags omitted). A change or cut given only in a name is not applied to a line headed by its entry. Chains listed by the source or under a name are the forms on record and can include a tag or linker.
UniProt P36873: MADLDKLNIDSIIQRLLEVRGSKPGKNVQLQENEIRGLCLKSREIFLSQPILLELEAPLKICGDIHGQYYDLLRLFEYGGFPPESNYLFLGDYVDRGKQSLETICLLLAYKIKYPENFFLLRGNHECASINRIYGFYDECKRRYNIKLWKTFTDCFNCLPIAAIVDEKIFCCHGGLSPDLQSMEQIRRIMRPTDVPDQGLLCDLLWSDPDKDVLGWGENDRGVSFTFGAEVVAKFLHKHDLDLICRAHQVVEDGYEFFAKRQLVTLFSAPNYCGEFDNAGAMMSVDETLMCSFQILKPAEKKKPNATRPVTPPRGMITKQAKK
purified recombinant PPP1CC2 (P36873-2, form named): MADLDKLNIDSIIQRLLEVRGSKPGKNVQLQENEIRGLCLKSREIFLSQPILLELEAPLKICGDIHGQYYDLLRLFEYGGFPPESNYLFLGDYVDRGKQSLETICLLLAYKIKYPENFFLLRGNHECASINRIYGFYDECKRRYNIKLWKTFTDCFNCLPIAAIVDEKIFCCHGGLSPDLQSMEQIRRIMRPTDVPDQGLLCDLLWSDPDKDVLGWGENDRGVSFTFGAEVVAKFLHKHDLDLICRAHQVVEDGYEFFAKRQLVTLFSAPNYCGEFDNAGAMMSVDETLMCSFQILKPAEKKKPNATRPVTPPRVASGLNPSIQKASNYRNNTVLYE

Results are given in words; binding and its absence hold for the method and conditions named. Some results given as binding are weak or reduced against the parent protein; the word gives no strength. Tags and fused reporters may be left off the sequences shown.

As for “purified recombinant PPP1CC1 (from UniProt P36873 1-323) (enzyme)”, the binding entry was “binds”.
Turning to “purified recombinant PPP1CC2 (from UniProt P36873-2 1-337) (enzyme)”, the binding entry is “binds”.

Values taken from PMC3606321.
